Measured values: paper PMC6294567, “The C-terminal D/E-rich domain of MBD3 is a putative Z-DNA mimic that competes for Zα DNA-binding activity” (Nucleic Acids Research, 2018)

B1: MBD domain: MBD domain of MBD3; residues 1–72 (protein)
chain: MERKRWECPALPQGWEREEVPRRSGLSAGHRDVFYYSPSGKKFRSKPQLARYLGGSMDLSTFDFRTGKMLMS
modifications: left off: His6, N-terminal, cleaved
B2: MBD3: full-length human MBD3; residue 1–291 (protein)
chain: MERKRWECPALPQGWEREEVPRRSGLSAGHRDVFYYSPSGKKFRSKPQLARYLGGSMDLSTFDFRTGKMLMSKMNKSRQRVRYDSSNQVKGKPDLNTALPVRQTASIFKQPVTKITNHPSNKVKSDPQKAVDQPRQLFWEKKLSGLNAFDIAEELVKTMDLPKGLQGVGPGCTDETLLSAIASALHTSTMPITGQLSAAVEKNPGVWLNTTQPLCKAFMVTDEDIRKQEELVQQVRKRLEEALMADMLAHVEELARDGEAPLDKACAEDDDEEDEEEEEEEPDPDPEMEHV
B3: MBDDE: MBD domain of MBD3 connected to the acidic tail; residues 263–291 (protein)
chain: MERKRWECPALPQGWEREEVPRRSGLSAGHRDVFYYSPSGKKFRSKPQLARYLGGSMDLSTFDFRTGKMLMSDKACAEDDDEEDEEEEEEEPDPDPEMEHV
modifications: left off: His6, N-terminal, cleaved

Assay: Gel filtration (SEC) oligomeric state of MBD3 proteins
Conditions: gel filtration against protein standards
For B1, the oligomeric state was “monomer”. For B2, the oligomeric state was “appeared to form a dimer in gel filtration”. In the case of B3, the oligomeric state is reported as “dimeric form”.
